From PubChem BioAssay AID540256 (National Center for Advancing Translational Sciences (NCATS), 2011)
Hit rate of the full screen: of about 300,000 compounds, about 3,700 (1.2%) were called active. Inconclusive means that the source gave no clear call. Such entries were picked first, then a sample of the others. The call rests on the fitted dose curve; tested in HEK293 cells. Potencies of inconclusive entries are doubtful fits and often do not repeat.

assay: qHTS for Inhibitors of binding or entry into cells for Lassa Virus; conditions: Lassa virus pseudotype entry inhibition, cell reporter; activity change, negative = inhibition: at 37.9 µM (top of the series) unless noted; further: nearly all actives have a fitted effect of over 50% in size
On the % scale 0 is the no-effect control and ±100 the full control effect; potency means the concentration at half of the fitted maximal effect.

Structure (SMILES)	activity change, negative = inhibition	Potency
Cc1ccc(NS(=O)(=O)c2cccc(C(=O)N3CCN(c4ncccn4)CC3)c2)cc1	inactive: -10.5%	
Cc1cc(C)c(S(=O)(=O)N(CC(=O)N2CCCC2)C2CCCCC2)c(C)c1		inconclusive: 5.8 µM [inhibitor, full curve]
CCN(c1ccccc1)c1ncnc2c1cnn2-c1ccc(OC)cc1		inconclusive: 35.5 µM [inhibitor, single point]
Cc1ccc2[nH]c3c(=O)n(CC(=O)N4CCN(c5ccccc5F)CC4)ncc3c2c1	inactive: -11.8% [at 46.1 µM]	
CC(NCCC(c1ccccc1)c1ccccc1)c1ccccc1 (stereo not given)		active: 23.1 µM
Nc1ncnc(Nc2ccc(F)cc2)n1		inconclusive: 3.98 µM [activator, full curve, poor fit]
CCOC(=O)c1ccccc1NC(=O)Cc1c(C(=O)O)n(C)c2ccccc12	inactive: -2.22% [at 46.1 µM]	
O=C1c2ccccc2C(=O)N1CC(=O)N1c2ccccc2Sc2ccccc21		inconclusive: 20.6 µM [activator, single point]
COc1ccc(Nc2cc(C(=O)NCCCN3CCN(C)CC3)c3ccccc3n2)c(OC)c1		inconclusive: 7.94 µM [activator, partial curve, poor fit]
CC(C)(C)SCCNC(=O)/C=C/c1ccc(F)cc1	inactive: 10.1%	
CCOC(=O)c1ccc(NC(=O)c2noc3c2CCCC3)cc1	inactive: 19% [at 46.1 µM]	
COc1ccc(-c2nc(NC(=O)Cn3ccc(C(F)(F)F)n3)sc2C)cc1		inconclusive: 20 µM [inhibitor, single point]
C=CCSc1nsc(NC(=O)Nc2ccc(F)cc2)n1		inconclusive: 15.8 µM [inhibitor, single point]
COc1ccccc1OCC(=O)NCc1nc(-c2ccccc2)no1		inconclusive: 6.31 µM [activator, single point]
Cc1cc(Nc2ccccc2)n(C(=O)c2ccc(Cl)cc2)n1		inconclusive: 29.1 µM [activator, single point]
O=C(O)c1ccc(COc2ccc3ccccc3c2/C=C2/NC(=O)N(Cc3ccc(F)cc3)C2=O)cc1	inactive: -12.7%	
CC(C)(C)N(CC(=O)NC1CCCCC1)C(=O)CS(=O)CC(=O)Nc1ccc(F)cc1 (stereo not given)		inconclusive: 15.8 µM [inhibitor, single point]
COc1ccc(OC)c(Nc2nc(-c3ccc(O)c(O)c3)cs2)c1		inconclusive: 35.5 µM [inhibitor, single point]
COc1cc(C2N(C)CCC3(OCCO3)C2(C)C)cc(OC)c1OC (stereo not given)		inconclusive: 1.26 µM [activator, single point]
COc1ccccc1CNC(=O)CNC(=O)c1sc2ccccc2c1Cl		inconclusive: 1.12 µM [activator, partial curve, poor fit]
Cc1cc(C(=O)CCC(=O)N(C)CC(=O)Nc2ccc(OC(F)(F)F)cc2)c(C)s1	inactive: -17.3%	
Cc1cc(C)n2nc(C(=O)N/N=C/c3ccccc3Cl)nc2n1	inactive: -3.25%	
CCC(C)n1c(=O)c2sccc2n2c(CCCC(=O)Nc3ccc(F)cc3)nnc12 (stereo not given)	inactive: -10.1% [at 46.1 µM]	
O=C(Cn1cnc2ccccc21)N/N=C/c1cccs1		inconclusive: 20 µM [activator, single point]

Structure (SMILES)	activity change, negative = inhibition	Potency
CCOC(=O)C1CCN(C(=O)c2cccc(N3C(=O)NC4CC3(C)Oc3ccc(C)cc34)c2)CC1 (stereo not given)	inactive: -16.6% [at 46.1 µM]	
CCC(=O)N1CCc2cc(Br)cc(S(=O)(=O)NC3CCN(Cc4ccccc4)CC3)c21		active: 2.24 µM
COc1cccc(NC(=O)c2ccc3c(c2)OCCO3)c1		active: 1.12 µM
COc1cccc(C(C(=O)NC(C)(C)C)N(CC(C)C)C(=O)CCC(=O)Nc2cc(C)on2)c1OC (stereo not given)	inactive: -18.6% [at 46.1 µM]	
Cc1ccc(SCC(=O)N2CCN(S(=O)(=O)c3cccs3)CC2)cc1		inconclusive: 1.26 µM [inhibitor, full curve, poor fit]
O=C(NCC(c1ccco1)S(=O)(=O)c1ccc(Cl)cc1)c1ccc(C(F)(F)F)cc1 (stereo not given)		inconclusive: 1.12 µM [inhibitor, partial curve, poor fit]
N/C(=N\S(=O)(=O)c1ccc(Cl)s1)c1ccccc1	inactive: -0.0065%	
COc1ccc(C(=O)N(Cc2ccco2)Cc2ccccc2F)cc1Cl		inconclusive: 11.2 µM [inhibitor, partial curve]
CC(=O)Nc1ccc(S(=O)(=O)Nc2nc3ccccc3nc2Nc2ccc3ccccc3c2)cc1		inconclusive: 7.08 µM [inhibitor, partial curve, poor fit]
Cc1cc(NC(=O)CCC2COc3ccccc3O2)no1 (stereo not given)		inconclusive: 35.5 µM [activator, partial curve, poor fit]
CCN1CCN(C(=O)c2c(-c3c(Cl)cccc3Cl)noc2C)CC1		inconclusive: 5.62 µM [inhibitor, single point]
Cc1ccc(CNC(=O)CCCCCn2c(=O)c3sccc3n(CC(=O)C(C)(C)C)c2=O)cc1		inconclusive: 3.98 µM [inhibitor, partial curve, poor fit]
O=C1CCCN1CCC(=O)N1CCCC(Nc2ccc(F)c(F)c2)C1 (stereo not given)	inactive: 4.69%	
Cc1cc2c(nc1C)CCCN2C[C@@H](C)O/N=C1/[C@H]2CCn3c(=O)n(-c4ccccc4)c(=O)n3[C@H]2[C@H](O)[C@@H]2O[C@H]12	inactive: -10.5%	
CCCOP(=O)(OCCC)C(NC(=O)C(C)(C)C)c1ccccc1 (stereo not given)		inconclusive: 29.1 µM [activator, single point]
COc1ccc(CNc2nc(-c3ccccc3)nc3ccccc23)cc1OC	inactive: -0.22% [at 46.1 µM]	
COC(=O)c1[nH]c2cc(C)ccc2c1NC(=O)CN1CCc2cc(OC)c(OC)cc2C1		inconclusive: 10 µM [inhibitor, partial curve, poor fit]
C=CCn1c(SCc2cc(C(C)=O)ccc2OCC)nc2ccccc2c1=O		inconclusive: 0.891 µM [inhibitor, full curve, poor fit]
O=C(Nc1ccccc1)C1CCN(S(=O)(=O)c2ccc3c(c2)CCCN3C(=O)C2CCC2)CC1		inconclusive: 6.31 µM [inhibitor, partial curve, poor fit]
COc1ccc(-n2cc3c(-c4cccc(Br)c4)nnc(C)c3n2)cc1		inconclusive: 25.9 µM [inhibitor, partial curve, poor fit]
COc1ccc(NC(=O)c2ccco2)cc1NC(=O)c1cccc(C)c1OC		inconclusive: 5.01 µM [inhibitor, full curve, poor fit]
CCCCn1c(-c2csc(C(C)C)c2)n[nH]c1=S		inconclusive: 0.092 µM [inhibitor, full curve, poor fit]
COc1ccc(C2(C)NC(=O)N(CC(=O)c3cc(C)n(C4CC4)c3C)C2=O)cc1OC (stereo not given)	inactive: -5.06%	
CC(C)Oc1ccc(CSc2ncn[nH]2)cc1		inconclusive: 8.91 µM [inhibitor, partial curve]

Structure (SMILES)	activity change, negative = inhibition	Potency
Cc1cccc(C)c1NC(=O)CSc1nnc(-c2ccccc2)n1Cc1ccc2c(c1)OCO2		inconclusive: 29.1 µM [inhibitor, single point]
COCOCCn1cc(CN2CCS(=O)(=O)N(Cc3ccc(-c4ccc(Cl)cc4)cc3)C(C)C2=O)nn1 (stereo not given)		inconclusive: 5.6 µM [activator, single point]
CCN(CC)S(=O)(=O)c1cc(C(=O)OCC(=O)Nc2cccc(S(=O)(=O)N(C)C)c2)ccc1F	inactive: 14% [at 46.1 µM]	
O=C(COc1ccc(Cl)cc1)NNC(=O)C(=O)NC1CCCCC1	inactive: 8.85%	
O=C(NC1CCCC1)c1ccc(Br)o1	inactive: -1.5%	
CC(C)c1ccc(NC(=S)NC2CCN(Cc3ccccc3)CC2)cc1		active: 17.8 µM
N[C@@H](Cc1cc(Br)c(O)c(Br)c1)C(=O)O	inactive: 9.27%	
Cc1ccccc1-n1c(SCC(=O)c2ccccc2)nnc1-c1ccc(F)cc1		inconclusive: 35.5 µM [inhibitor, single point]
Cc1cccc(CSc2nnnn2-c2ccccc2)c1		active: 10 µM
O=C(NCC1COc2ccccc2O1)c1cccs1 (stereo not given)	inactive: 21.9% [at 46.1 µM]	
Fc1ccc(-c2cnc[nH]2)cc1		inconclusive: 20 µM [activator, single point]
O=C(c1cccs1)c1ccc(-c2cccs2)s1		inconclusive: 7.94 µM [inhibitor, partial curve, poor fit]
Cc1cc(C)c2c(N)c(C(=O)c3ccc(Cl)cc3Cl)sc2n1		inconclusive: 5.62 µM [inhibitor, full curve, poor fit]
COc1ccc(Nc2ncc(C(=O)Nc3cccc(OC)c3)c3ccccc23)cc1		inconclusive: 5.62 µM [activator, single point]
O=C(COc1cccnc1[N+](=O)[O-])c1ccc(Cl)s1	inactive: -0.78%	
O=C(c1ccc(Br)s1)N1CCN(c2ncccn2)CC1		inconclusive: 7.3 µM [activator, single point]
Cc1ccc(NC(=O)N/C=C/c2ccco2)c(C)c1		inconclusive: 0.517 µM [activator, full curve, poor fit]
CCOc1cc(CNC(=O)CSc2n[nH]c(-c3ccccc3)n2)cc(OCC)c1OCC	inactive: -1.74% [at 46.1 µM]	
COc1ccccc1N1C(=O)c2cccc3c(Cl)ccc(c23)C1=O		inconclusive: 17.8 µM [inhibitor, partial curve, poor fit]
COc1ccccc1-n1c(SCC(=O)N2CCCCC2)nc2cccnc21		inconclusive: 18.3 µM [activator, single point]
Cc1ccccc1Nc1nc(N)nc(COC(=O)c2cccc(S(=O)(=O)N(C)c3ccccc3)c2)n1		inconclusive: 29.1 µM [inhibitor, single point]
O=C(O)C1=C(Nc2ccccc2)OCC1=O		inconclusive: 6.31 µM [activator, single point]

Rewritten comma-delimited: 3 of the compounds above
Structure (SMILES),"activity change, negative = inhibition",Potency
COc1cc(C2N(C)CCC3(OCCO3)C2(C)C)cc(OC)c1OC (stereo not given),,"inconclusive: 1.26 µM [activator, single point]"
COc1cccc(C(C(=O)NC(C)(C)C)N(CC(C)C)C(=O)CCC(=O)Nc2cc(C)on2)c1OC (stereo not given),inactive: -18.6% [at 46.1 µM],
COCOCCn1cc(CN2CCS(=O)(=O)N(Cc3ccc(-c4ccc(Cl)cc4)cc3)C(C)C2=O)nn1 (stereo not given),,"inconclusive: 5.6 µM [activator, single point]"
